Experimental findings from paper doi:10.1101/2022.09.29.510199 are described below.

Results are given in words; binding and its absence hold for the method and conditions named. Some results given as binding are weak or reduced against the parent protein; the word gives no strength.

This test has as its target T1, Norrin (human, from the SUMO-Norrin construct, SUMO removed) (human), Q00604.
T1 chain: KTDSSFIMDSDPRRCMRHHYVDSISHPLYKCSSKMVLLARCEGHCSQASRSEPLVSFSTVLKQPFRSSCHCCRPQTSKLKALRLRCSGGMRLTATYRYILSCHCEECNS
Briefly: crystal structure. The note with it: remark: other sources report otherwise.

B1: Norrin (human, from the SUMO-Norrin construct, SUMO removed), Q00604 25-133 (ligand)
chain: KTDSSFIMDSDPRRCMRHHYVDSISHPLYKCSSKMVLLARCEGHCSQASRSEPLVSFSTVLKQPFRSSCHCCRPQTSKLKALRLRCSGGMRLTATYRYILSCHCEECNS
For the molecule B1, the binding result is recorded as “binds”.
